Settings: pH 7

SMILES: CCN(CC)CC(=O)Nc1c(C)cccc1C [lidocaine]
- pH of the donor formulation above which lidocaine exhibits enhanced transdermal electrotransport flux: above 7

— patent US5990179A, “Composition and method of enhancing electrotransport agent delivery” (ALZA Corporation, priority 1995, dated 1999)
